This data set has as its system OATP1B2. Briefly: Untargeted metabolomics of plasma and DRG, WT vs OATP1B2-deficient mice. Type of data set: in vivo, mouse.
[1] abbreviates: untargeted metabolomics, sheet "Figure 5C", WT vs OATP1B2-deficient mice.
[2] abbreviates: untargeted metabolomics, WT vs OATP1B2-deficient mice, supplement sheet "Figure 5B" (volcano plot).
Where [3] appears, read: Figure 5B source data (volcano plot), untargeted metabolomics, WT vs OATP1B2-deficient mice, log2 fold change of metabolite level.
[4] abbreviates: untargeted metabolomics, WT vs OATP1B2-deficient mice, supplement sheet "Figure 5B".

Experimental findings from PMC10443802 (JCI Insight, 2023) are described below.

Several values for one entry are separate records, joined by “and”; a condition that tells them apart may be missing. Identical values can stand only once. Counter-ions that a name gives are not always drawn.

Under setting [1], `CCCCCC(O)CC(=O)OC(CC(=O)[O-])C[N+](C)(C)C` (stereo not shown) [3-hydroxyoctanoylcarnitine (1)] came in with a Log2FoldChange of -0.0145. In the case of `CCCCCC(O)CC(=O)NCC(=O)O` (stereo not shown) [3-hydroxyoctanoylglycine], the Log2FoldChange under setting [2] was 0.5059. With `CCCCCCCC/C=C\CCCCC[C@H](O)CC(=O)O` [3-hydroxyoleate*], the Log2FoldChange under setting [3] is recorded as -0.2009. Take `CCCCCCCC/C=C\CCCCCC(O)CC(=O)OC(CC(=O)[O-])C[N+](C)(C)C` (stereo not shown) [3-hydroxyoleoylcarnitine]: the Log2FoldChange reads like this: under setting [2], 0.5656; under setting [1], 0.1763.

`O=S(=O)(O)Oc1cccnc1` [3-hydroxypyridine sulfate] had a Log2FoldChange under setting [2] of 0.6871. Still for that read-out and setting: to `O=C(O)CCCCCCC(O)CC(=O)O` (stereo not shown) [3-hydroxysebacate] belongs 0.263. In the case of `CCCCCCCCCCCCCCCC(O)CC(=O)O` (stereo not shown) [3-hydroxystearate], under setting [3], the Log2FoldChange is -0.3401. Same read-out and setting: to `O=C(O)CCCCC(O)CC(=O)O` (stereo not shown) [3-hydroxysuberate] belongs -0.3219.

The compound `CCCCCCCCCCC(O)CC(=O)O` (stereo not shown) [3-hydroxytridecanoate] yielded a Log2FoldChange under setting [1] of 0.1375. On to `O=C(O)C(=O)c1c[nH]c2ccccc12` [3-indoleglyoxylic acid], for which the Log2FoldChange under setting [4] is on record as -0.1361.

Turning to `O=S(=O)(O)Oc1c[nH]c2ccccc12` [3-indoxyl sulfate], the Log2FoldChange under setting [2] is 0.5656 and the Log2FoldChange under setting [1] is recorded as 0.5361. As to `CC(C)C(=O)C(=O)O` [3-methyl-2-oxobutyrate], the Log2FoldChange by setting is: under setting [3], -0.2863; under setting [1], 0.08406.

Consider `CC[C@H](C)C(=O)C(=O)O` [3-methyl-2-oxovalerate], for which the Log2FoldChange is given as -0.2176 under setting [3] and -0.074 under setting [1]. Consider `C[C@@H](CCC(=O)O)CC(=O)O` [3-methyladipate], for which the Log2FoldChange under setting [3] is listed as -1.2863. Take `CC(C)=CC(=O)NCC(=O)O` [3-methylcrotonylglycine]: under setting [2], the Log2FoldChange came out at 0.3448. As to `Cn1c(=N)ccn([C@@H]2O[C@H](CO)[C@@H](O)[C@H]2O)c1=O` [3-methylcytidine], the Log2FoldChange is -1.322 under setting [3] and -0.1203 under setting [1]. Regarding `C/C(=C\C(=O)O)CC(=O)O` [3-methylglutaconate], the Log2FoldChange reads like this: under setting [4], 0.08406; under setting [1], 0.3785.

Under setting [2], `O=C(O)CCc1ccccc1.O=C(O)CCc1ccccc1` [3-phenylpropionate (hydrocinnamate)] showed a Log2FoldChange of 0.696. Under setting [1], `O=C(O)[C@H](O)COP(=O)(O)O` [3-phosphoglycerate] registered a Log2FoldChange of -0.1681.

Turning to `N[C@@H](CS(=O)(=O)O)C(=O)O` [3-sulfo-L-alanine], under setting [1], the Log2FoldChange is on record as -0.08927. With `NC(=O)NCCC(=O)O` [3-ureidopropionate], the Log2FoldChange by setting is: under setting [4], 0.08406; under setting [1], -0.1047. In turn, `CC(=O)Nc1ccc(C(=O)O)cc1` [4-acetamidobenzoate] had a Log2FoldChange under setting [2] of 1.098. In the case of `CC(=O)NCCCC(=O)O` [4-acetamidobutanoate], under setting [4], the Log2FoldChange was 0.05658.

Turning to `CC(=O)c1ccc(OS(=O)(=O)O)cc1` [4-acetylphenol sulfate], under setting [3], the Log2FoldChange is -0.1681. In turn, `C=CCc1ccc(OS(=O)(=O)O)c(O)c1` [4-allylcatechol sulfate] displayed a Log2FoldChange under setting [2] of 0.3448. Same read-out and setting: to `C=CCc1ccc(OS(=O)(=O)O)cc1` [4-allylphenol sulfate] belongs 0.4854.

For the compound `CC(C)CCC[C@@H](C)[C@H]1CC[C@H]2[C@@H]3CCC4=CC(=O)CC[C@]4(C)[C@H]3CC[C@]12C` [4-cholesten-3-one], the Log2FoldChange runs as follows: under setting [2], 0.3674; under setting [1], -0.2176. Under setting [2], `CCc1ccc(OS(=O)(=O)O)cc1` [4-ethylphenylsulfate] registered a Log2FoldChange of 4.103.

For `NC(N)=NCCCC(=O)O` [4-guanidinobutanoate], the Log2FoldChange worked out at 0.3785 under setting [2] and 0.6041 under setting [1].

For the compound `O=C(O)CCCO` [4-hydroxybutyrate (GHB)], the Log2FoldChange (mouse, in vivo) is -0.2515. On to `N#Cc1c(O)c(Cl)c(Cl)c(C#N)c1Cl` [4-hydroxychlorothalonil], for which the Log2FoldChange under setting [2] amounted to 1.124.

`O=C(O)C=Cc1ccc(OS(=O)(=O)O)cc1` [4-hydroxycinnamate sulfate] displayed a Log2FoldChange under setting [2] of 0.856. In the case of `O=C(O)/C=C/c1ccc(O)cc1` [4-hydroxycinnamate], the Log2FoldChange under setting [4] is listed as 0.2016. The same measure, in the same setting: to `N[C@@H](CC(O)C(=O)O)C(=O)O` (stereo partly shown) [4-hydroxyglutamate] belongs 0; to `O=C(O)CNC(=O)c1ccc(O)cc1` [4-hydroxyhippurate], -0.152; to `O=C(O)Cc1ccc(OS(=O)(=O)O)cc1` [4-hydroxyphenylacetate sulfate], 0.1375. On the same count and under the same terms, to `O=C(O)Cc1ccc(O)cc1` [4-hydroxyphenylacetate] belongs 0.111.

With `O=C(O)Cc1cnc[nH]1` [4-imidazoleacetate], the Log2FoldChange under setting [2] amounted to 0.4751.

In turn, `COc1ccc(OS(=O)(=O)O)cc1` [4-methoxyphenol sulfate] came in with a Log2FoldChange under setting [4] of -0.0145. As to `CC(C)CC(=O)C(=O)O` [4-methyl-2-oxopentanoate], the Log2FoldChange is, setting by setting: under setting [4], -0.1361; under setting [1], -0.1047. `Cc1ccc(S(=O)(=O)O)cc1` [4-methylbenzenesulfonate]: the Log2FoldChange reads like this: under setting [4], 0.05658; under setting [1], 0.3674. `Cc1ccc(OS(=O)(=O)O)c(O)c1` [4-methylcatechol sulfate] yielded a Log2FoldChange under setting [4] of 0.09761.

Turning to `CCC(C)CCC(=O)NCC(=O)O` (stereo not shown) [4-methylhexanoylglycine], the Log2FoldChange under setting [2] was 0.5261. The same measure, in the same setting: to `O=C1CCNC(=O)N1` [5,6-dihydrouracil] belongs 0.251. Under setting [1], `O=C1CCN([C@@H]2O[C@H](CO)[C@@H](O)[C@H]2O)C(=O)N1` [5,6-dihydrouridine] gave a Log2FoldChange of 0.2388. The compound `NCC(CC[C@H](N)C(=O)O)OC1O[C@H](CO)[C@H](O)[C@H](O)[C@H]1O` (stereo partly drawn) [5-(galactosylhydroxy)-L-lysine] gave a Log2FoldChange under setting [4] of 0.08406. As to `NCCCCC(=O)O` [5-aminovalerate], the Log2FoldChange under setting [3] is -0.5995. In the case of `CCCCCCC=CCCCC(=O)O` [5-dodecenoate (12:1n7)], under setting [3], the Log2FoldChange is recorded as -0.2176. In turn, `CCCCCC/C=C\CCCC(=O)OC(CC(=O)[O-])C[N+](C)(C)C` (stereo not shown) [5-dodecenoylcarnitine (C12:1)] showed a Log2FoldChange under setting [2] of 0.546. As to `CC(O)CCCC(=O)O` (stereo not shown) [5-hydroxyhexanoate], the Log2FoldChange under setting [2] was found to be 0.3334. Take `O=C(O)Cc1c[nH]c2ccc(O)cc12` [5-hydroxyindoleacetate]: the Log2FoldChange under setting [3] is listed as -0.2176. Regarding `NC[C@H](O)CC[C@H](N)C(=O)O` [5-hydroxylysine], the Log2FoldChange under setting [3] is on record as -0.2009 and the Log2FoldChange under setting [1] was -0.1361. On to `Cc1cn([C@H]2C[C@H](O)[C@@H](CO)O2)c(=O)nc1N` [5-methyl-2'-deoxycytidine], for which the Log2FoldChange under setting [2] amounted to 0.8718 and the Log2FoldChange under setting [1] worked out at 0.275. On to `Cc1cn(C2OC(CO)C(O)C2O)c(=O)nc1N` (stereo not shown) [5-methylcytidine], for which the Log2FoldChange is, setting by setting: under setting [4], 0.05658; under setting [1], 0.4114. Take `CSC[C@H]1O[C@@H](n2cnc3c(N)ncnc32)[C@H](O)[C@@H]1O` [5-methylthioadenosine (MTA)]: the Log2FoldChange runs as follows: under setting [2], 0.2265; under setting [1], 0.2265. Under setting [4], `CSC[C@H]1O[C@@H](O)[C@H](O)[C@@H]1O` [5-methylthioribose**] yielded a Log2FoldChange of -0.1203. In turn, `Cc1cn([C@@H]2O[C@H](CO)[C@@H](O)[C@H]2O)c(=O)[nH]c1=O` [5-methyluridine (ribothymidine)] gave a Log2FoldChange under setting [1] of 0.3334.

For the compound `O=C(O)[C@@H]1CCC(O)=N1` [5-oxoproline], the Log2FoldChange (mouse, in vivo) was 0.1375 and 0.111.

Turning to `O=P(O)(O)OC[C@H]1O[C@H](OP(=O)(O)OP(=O)(O)O)[C@H](O)[C@@H]1O` [5-phosphoribosyl diphosphate (PRPP)], the Log2FoldChange under setting [1] is 1.1375. Turning to `C[C@H](CCC(=O)O)[C@H]1CC[C@H]2[C@@H]3C[C@@H](O)[C@@H]4C[C@H](O)CC[C@]4(C)[C@H]3CC[C@]12C` [6-beta-hydroxylithocholate], the Log2FoldChange under setting [2] worked out at 3.716.

In the case of `O=S(=O)(O)Oc1ccc2cc[nH]c2c1` [6-hydroxyindole sulfate], under setting [2], the Log2FoldChange is recorded as 0.5753.

Compound `C[C@H](CCC(=O)O)[C@H]1CC[C@H]2[C@@H]3CC(=O)[C@@H]4C[C@H](O)CC[C@]4(C)[C@H]3CC[C@]12C` [6-oxolithocholate] returned a Log2FoldChange under setting [2] of 0.516. Under setting [2], `C[C@H](CCC(=O)O)[C@H]1CC[C@H]2[C@@H]3C(=O)C[C@@H]4C[C@H](O)CC[C@]4(C)[C@H]3C[C@H](O)[C@]12C` [7-ketodeoxycholate] displayed a Log2FoldChange of 2.639. As to `Cn1cnc2nc(N)[nH]c(=O)c21` [7-methylguanine], the Log2FoldChange under setting [1] amounted to 0.189. Still for that read-out and setting: to `CCCCCCC=CCCCCCCCCC(=O)O` [10-heptadecenoate (17:1n7)] belongs 0.3219.

In the case of `CCCCCCCCC=CCCCCCCCCC(=O)O` [10-nonadecenoate (19:1n9)], the Log2FoldChange is -0.1203 under setting [4] and 0.251 under setting [1]. In the case of `C=CCCCCCCCCC(=O)O` [10-undecenoate (11:1n1)], the Log2FoldChange under setting [3] was -0.415. Under setting [4], `CCCCCC(O)C(O)C/C=C\CCCCCCCC(=O)O` (stereo not shown) [12,13-DiHOME] registered a Log2FoldChange of 0.09761.

`CC/C=C\C/C=C\CC(O)/C=C/C=C\C/C=C\CCCC(=O)O` (stereo not shown) [12-HEPE] came in with a Log2FoldChange under setting [4] of -0.1047. For the compound `CCCCC/C=C\C[C@H](O)/C=C/C=C\C/C=C\CCCC(=O)O` [12-HETE], the Log2FoldChange runs as follows: under setting [4], 0.05658; under setting [1], 0.2869.

`O=C(O)CCCCCCCCCCCCCCCO` [16-hydroxypalmitate]: the Log2FoldChange under setting [2] worked out at 0.4222.
